Test: general procedure: hybrid (solid and solution phase) peptide synthesis; dicyclohexylcarbodiimide (DCC) or other coupling reagents
Details: whole synthesis, based on 1H-NMR

“[(1R)-1-(Ac-Thr-Leu-Asn)-2-phenylethyl]-B-methylene-L-proline amide borinic acid” gave a crude yield of 88%.
“[( 1R)-1-(Ac-Ser-Leu-Asn)-2-phenylethyl]-B-methylene-L-proline amide borinic acid” showed a crude yield of 56%.
